## Library screen at single concentrations

Data taken from ChEMBL document CHEMBL3988442, “University of Dundee, Small-Polar-MMV Screening Library” (2021).

Results are given as percent effect.
The record does not define 0% and 100%; most values in the screen are far below 50% and negative numbers occur (in some assays of this library far below -100).
The compounds are a random part of those screened.
Two or more numbers in one place are separate tests of the same structure; such repeats can differ widely.
A dash means the value is not listed here; it may have been measured.

A: 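Phenotypic screen: M. tuberculosis growth, cholesterol and DPPC medium, 4 days; the read-out is not stated. Tested at 50 µM. Higher reads as more growth inhibition (inferred: compounds with an IC50 in retests scored well above the rest). Of about 69,000 compounds tested this way, about 370 (0.54%) reached 50% or more in at least one test.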
B: 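Whole-cell growth test on Mycobacterium tuberculosis, read after 3 days in glucose-containing 7H9 medium; the read-out is not stated. Tested at 50 µM. The record gives no direction; compounds that gave an IC50 in retests scored well above the rest, so higher reads as more growth inhibition. Size under these conditions: about 69,000 compounds, about 760 of them at 50% or above in at least one test.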

compound | A | B
COC[C@]1(O)CCN(c2cc(N3CCOCC3)ncn2)CC1(C)C | 13.18% | 9.762%
CC(=O)N1CCCn2nc(CNS(=O)(=O)Cc3ccccc3)cc2C1 | -4.255% | -10.91%
Cc1ccc(C(=O)N2CCCCC2CNC(N)=O)s1 (centres unmarked) | -9.112% | -10.98%
CC(Cn1ccnc1)NC(=O)N1CCN(Cc2cccnc2)CC1 (centres unmarked) | -4.199% | -13.65%
Cc1csc(CNc2cccc(OCCN3CCCC3)c2)n1 | 4.259% | 6.639%
COc1cc(C)c(C(C)NC(=O)Nc2nnc(C)s2)cc1OC (centres unmarked) | -1.257% | 13.14%
CCC(O)CN1CCN(C(=O)c2cc3ccccc3n2CC)CC1 (centres unmarked) | -24.36% | -21.63%
Cc1[nH]/c(=N\C(=O)c2csc(NC3CCCC3)n2)sc1C | 61.09% | 61.73%
CN(Cc1nccn1C)C(=O)c1cccc(CCC(C)(C)O)c1 | -1.982% & 6.197% | -12.71%
O=C(O)C(F)(F)F.[H][C@]12CCCC(N(C)Cc3ccccn3)[C@@]1([H])CN(c1ncc(C)cn1)C2 (some centres unmarked) | -13.94% | -18.86%
Cc1cc(C2CCCN(C(=O)c3ccc(C)[nH]c3=O)C2)n[nH]1 (centres unmarked) | -1.513% | 3.682%
[H][C@@]12CN(C(=O)NCC)C[C@]1([H])OCC(=O)N2C(C)C | -8.568% | 7.872% & -3.795%
O=C(O)C(F)(F)F.[H][C@]12CCC[C@@H](CN(C)C)[C@@]1([H])CN(c1ccc(C)nn1)C2 | 20.13% | 19.13% & -5.877%
Cc1cc(C)n(CC(C)NC(=O)C2(c3ccc(F)cc3)CC2)n1 (centres unmarked) | -11.22% | -0.9629% & 0.5038%
CN(C)Cc1nnc(C(=O)N(C)Cc2ccc(C(F)(F)F)cc2)o1 | 15.56% | 17.65%
COC(=O)CN(CC1CCOC1)C1CC1 (centres unmarked) | 9.786% | -2.237%
CCOc1ccc(-c2cc(=O)n3c(n2)CCCCC3)cc1 | -17.51% | -13.06%
O=C(NCCNc1ncccn1)NCCSC(F)(F)F | -8.081% | 0.9432% & -10.58%
COCCN1CCC12CCN(c1ncccn1)C2.O=C(O)C(F)(F)F (centres unmarked) | 26.31% & -8.422% | 29.54% & -1.528%
O=C(NCc1nc(NC2CCCC2)c2cc(Cl)ccc2n1)c1cscn1 | -9.2% | -4.451%
CCn1cc(CN(C)S(=O)(=O)c2ccccc2)cn1 | 8.147% | 26.86%
Cc1nc(N2CCC3(CCCNC3=O)C2)nc2c1CCCC2 (centres unmarked) | 10.7% | 8.514%
OC[C@@H](O)CN(CCC(F)(F)F)c1ncccn1 | -3.203% | -23.16%
CCOc1ccc(OCc2nccc(-c3cc(C(=O)O)ccn3)n2)cc1 | 107.4% | -15.92%
Cc1nc(O)cc(CN2C[C@H](NC(=O)C3CCC3)[C@@H](C3CC3)C2)n1 | 9.701% | -7.194% & 5.958%
[H][C@]12CN(c3ncc(F)cn3)C[C@@]1([H])S(=O)(=O)CC[C@@H]2C(=O)NC(C)C | -0.8595% | 21.57% & 4.029%
CC1CN(c2ncnc3cccc(F)c23)CCO1 (centres unmarked) | 16.67% | 0.5375% & 6.547%
CCc1cnc(CNc2ccc(C(=O)NCc3ccco3)cc2C)o1 | 19.03% | 15.22% & 27.66%
CN(C)CCN1C(=O)CCC12CCCN(C(=O)C1CC=CC1)CC2.O=C(O)C(F)(F)F (centres unmarked) | 9.561% | 24.18%
CCCNCc1cc2c(C)cc(C)cc2n2c(=O)n(C)nc12 | 0.868% | 26.84%
Cl.c1cnc2c(c1)cc([C@H]1CCCO1)n2CCN1CCOCC1 | -11.57% | 4.128%
CN(C)CC1(O)CCCN(C(=O)Cn2ccc3ccccc32)CC1 (centres unmarked) | -4.374% | 2.586% & -26.81%
Cn1nccc1-c1cnc2n1CCNC21CCN(C(=O)C2(C)CC2)CC1 | -12% | 10.88%
COc1ccc(NCc2ccccc2N2CCN(C(C)=O)CC2)cn1 | -66.52% | -
Cc1c(I)cccc1C(=O)NCc1ncc[nH]1 | -9.195% & -6.879% | -4.467% & -14.41%
O=S(=O)(NCC1CCOC1)N1CCc2ccccc2C1 (centres unmarked) | -20.8% | -11.13%
Cc1ccnc(NC(=O)C2CCN(CCCc3cn[nH]c3)CC2)c1 | 1.462% | 8.555%
Cc1cc(C(=O)N2CCCCC2c2nc3cc(F)ccc3[nH]2)nn1C (centres unmarked) | 6.433% | -5.665%
Cc1nc(C)n(C2CCCN(C(=O)COc3cccc(C#N)c3)C2)n1 (centres unmarked) | -7.327% | -6.157%
Cc1cc(C)n2c(CNCCNc3ccccc3)cnc2n1 | 1.359% | -12.84%
Cc1cnc(N2CCC3(CCC(C(=O)NC(C)C)OC3)CC2)nc1 (centres unmarked) | -10.17% | 3.703% & -19.58%
Cc1ccc(N2CCC3(CCN(C(N)=O)CC3)CC2)nn1 | -23.37% | -3.209%
CNC(=O)CCCNCc1c(C)nn(CC(C)C)c1N(C)C | -24.2% | -40.06%
CN(C)C(=O)CN1CCC(c2nnc(Cn3cccn3)n2C2CC2)CC1 | -5.574% | -7.343%
Cc1cc(O)c(OCC(=O)/N=c2/[nH]c3c(s2)CCC3)cn1 | -2.282% | 5.077%
Cc1cc2n(n1)CC(CNCCc1cnn(C)c1)CN2 (centres unmarked) | -33.18% | -67.7%
Cl.NC(CNS(=O)(=O)Cc1cccc2cccnc12)c1ccccc1 (centres unmarked) | 3.551% | 14.08%
COc1cccc2[nH]c(C(=O)N3CCNCC3C(N)=O)cc12.Cl (centres unmarked) | 16.86% & 2.866% | 25.07%
COc1ccc(S(=O)(=O)N2C[C@H](OC)[C@]3(CCCO3)C2)cc1 | -6.667% | -16.08%
Nc1cc2c(nn1)CCN(C(=O)CCCC1CCCCC1)C2 | -2.881% | -31.94%
[H][C@@]12CCN(C[C@@H]1c1cc(-c3cccs3)nn1C)[C@@H](CNS(C)(=O)=O)C2 | -3.168% | 5.53% & 10.51%
CCN(C(c1cccnc1)c1ccc2c(c1)CCC2)S(C)(=O)=O (centres unmarked) | 1.503% | 7.527% & 38.53%
CCCc1nnc(NC(=O)NC2CCOc3ccccc32)s1 (centres unmarked) | -10.19% & 2.852% | 5.412%
Cc1ccc(NC2CCN(C(=O)CCNc3ncccn3)CC2)nn1 | -16.49% | -6.31% & 11.76%

Repeated from the top, 4 entries:

COC[C@]1(O)CCN(c2cc(N3CCOCC3)ncn2)CC1(C)C gave A: 13.18%; B: 9.762%.
CC(=O)N1CCCn2nc(CNS(=O)(=O)Cc3ccccc3)cc2C1 gave A: -4.255%; B: -10.91%.
Cc1ccc(C(=O)N2CCCCC2CNC(N)=O)s1 (centres unmarked) gave A: -9.112%; B: -10.98%.
CC(Cn1ccnc1)NC(=O)N1CCN(Cc2cccnc2)CC1 (centres unmarked) gave A: -4.199%; B: -13.65%.